Test results from the supplement of paper PMC7666118.
Some of the results follow.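 Rule for the calls: active = dose-dependent thermal stabilisation significant by F-test of dose-response against flat model at 10% FDR; inactive = not significant.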

Protein sequences, listed by entry. Tags and fused reporters are not part of them. Lines headed by an entry give the natural chain unless they say otherwise; changes in a name come on top.
UniProt P23142: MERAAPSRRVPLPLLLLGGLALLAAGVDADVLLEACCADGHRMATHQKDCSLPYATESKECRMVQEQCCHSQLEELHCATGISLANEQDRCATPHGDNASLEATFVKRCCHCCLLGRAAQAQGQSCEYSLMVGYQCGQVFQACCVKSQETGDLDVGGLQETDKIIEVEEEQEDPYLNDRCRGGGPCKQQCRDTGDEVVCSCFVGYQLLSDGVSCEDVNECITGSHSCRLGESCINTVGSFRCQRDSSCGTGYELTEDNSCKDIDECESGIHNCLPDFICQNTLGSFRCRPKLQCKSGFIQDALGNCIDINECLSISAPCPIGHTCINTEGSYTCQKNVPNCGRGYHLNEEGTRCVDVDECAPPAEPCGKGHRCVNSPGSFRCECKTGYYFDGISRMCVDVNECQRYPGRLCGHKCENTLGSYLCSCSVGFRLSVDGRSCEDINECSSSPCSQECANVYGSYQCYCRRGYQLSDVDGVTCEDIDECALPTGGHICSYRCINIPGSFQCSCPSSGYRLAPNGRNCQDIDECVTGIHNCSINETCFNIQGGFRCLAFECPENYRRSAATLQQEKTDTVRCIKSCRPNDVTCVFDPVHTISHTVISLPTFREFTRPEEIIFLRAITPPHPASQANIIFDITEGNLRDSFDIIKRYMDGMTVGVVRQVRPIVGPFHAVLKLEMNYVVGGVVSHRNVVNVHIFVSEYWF
UniProt Q96RU3: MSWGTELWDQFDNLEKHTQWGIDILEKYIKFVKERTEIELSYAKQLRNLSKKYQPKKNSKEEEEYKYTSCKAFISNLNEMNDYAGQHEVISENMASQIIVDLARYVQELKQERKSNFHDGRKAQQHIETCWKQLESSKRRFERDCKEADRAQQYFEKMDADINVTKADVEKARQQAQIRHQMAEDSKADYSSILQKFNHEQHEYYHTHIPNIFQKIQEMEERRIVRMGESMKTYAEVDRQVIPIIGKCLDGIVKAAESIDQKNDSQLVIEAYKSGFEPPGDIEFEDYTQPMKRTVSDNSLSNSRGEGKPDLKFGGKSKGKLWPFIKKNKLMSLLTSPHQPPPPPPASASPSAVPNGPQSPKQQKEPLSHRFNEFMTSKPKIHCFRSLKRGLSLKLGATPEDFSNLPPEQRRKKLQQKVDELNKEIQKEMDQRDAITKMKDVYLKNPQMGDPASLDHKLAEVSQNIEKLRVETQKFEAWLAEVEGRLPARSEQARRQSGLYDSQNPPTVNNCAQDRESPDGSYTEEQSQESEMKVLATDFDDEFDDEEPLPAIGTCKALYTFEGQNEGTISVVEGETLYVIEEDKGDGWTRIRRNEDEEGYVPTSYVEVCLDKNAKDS
UniProt Q13347, whole entry: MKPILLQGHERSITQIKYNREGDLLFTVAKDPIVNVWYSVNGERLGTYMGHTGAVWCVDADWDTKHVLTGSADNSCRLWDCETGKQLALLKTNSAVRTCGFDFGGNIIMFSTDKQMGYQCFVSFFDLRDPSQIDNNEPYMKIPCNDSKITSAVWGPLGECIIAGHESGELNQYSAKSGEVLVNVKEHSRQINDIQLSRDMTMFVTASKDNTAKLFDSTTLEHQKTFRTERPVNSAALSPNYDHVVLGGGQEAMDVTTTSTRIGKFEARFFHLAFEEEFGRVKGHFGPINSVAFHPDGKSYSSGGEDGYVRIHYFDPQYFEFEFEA
UniProt Q9UIM3: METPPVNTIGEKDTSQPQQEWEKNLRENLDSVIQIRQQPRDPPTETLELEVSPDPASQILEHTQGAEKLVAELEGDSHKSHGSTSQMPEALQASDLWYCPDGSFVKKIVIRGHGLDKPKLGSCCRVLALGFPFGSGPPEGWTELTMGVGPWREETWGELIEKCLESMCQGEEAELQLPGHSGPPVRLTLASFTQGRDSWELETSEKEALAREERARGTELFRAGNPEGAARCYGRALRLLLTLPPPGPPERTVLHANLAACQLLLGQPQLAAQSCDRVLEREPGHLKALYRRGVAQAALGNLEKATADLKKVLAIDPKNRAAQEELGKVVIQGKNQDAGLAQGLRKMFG
UniProt Q5JSP0: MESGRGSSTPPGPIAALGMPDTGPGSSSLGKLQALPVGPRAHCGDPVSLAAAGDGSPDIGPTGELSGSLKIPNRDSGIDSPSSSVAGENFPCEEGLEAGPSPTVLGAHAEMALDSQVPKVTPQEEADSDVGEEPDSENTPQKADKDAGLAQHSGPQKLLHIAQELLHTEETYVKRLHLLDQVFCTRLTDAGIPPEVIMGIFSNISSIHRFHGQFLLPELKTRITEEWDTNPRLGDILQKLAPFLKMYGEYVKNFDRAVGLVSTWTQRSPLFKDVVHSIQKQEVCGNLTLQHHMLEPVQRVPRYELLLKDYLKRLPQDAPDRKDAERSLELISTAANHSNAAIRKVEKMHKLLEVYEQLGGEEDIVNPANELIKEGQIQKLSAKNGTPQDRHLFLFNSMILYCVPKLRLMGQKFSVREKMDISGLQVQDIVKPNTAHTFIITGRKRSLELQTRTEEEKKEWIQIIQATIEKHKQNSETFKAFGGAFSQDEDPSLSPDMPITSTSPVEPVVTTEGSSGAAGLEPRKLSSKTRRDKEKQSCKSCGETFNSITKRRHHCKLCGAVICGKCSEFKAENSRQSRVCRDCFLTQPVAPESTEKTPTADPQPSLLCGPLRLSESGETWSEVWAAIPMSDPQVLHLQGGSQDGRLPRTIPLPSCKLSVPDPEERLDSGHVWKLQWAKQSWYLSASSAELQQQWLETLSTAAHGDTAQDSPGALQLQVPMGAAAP
UniProt O43432, whole entry: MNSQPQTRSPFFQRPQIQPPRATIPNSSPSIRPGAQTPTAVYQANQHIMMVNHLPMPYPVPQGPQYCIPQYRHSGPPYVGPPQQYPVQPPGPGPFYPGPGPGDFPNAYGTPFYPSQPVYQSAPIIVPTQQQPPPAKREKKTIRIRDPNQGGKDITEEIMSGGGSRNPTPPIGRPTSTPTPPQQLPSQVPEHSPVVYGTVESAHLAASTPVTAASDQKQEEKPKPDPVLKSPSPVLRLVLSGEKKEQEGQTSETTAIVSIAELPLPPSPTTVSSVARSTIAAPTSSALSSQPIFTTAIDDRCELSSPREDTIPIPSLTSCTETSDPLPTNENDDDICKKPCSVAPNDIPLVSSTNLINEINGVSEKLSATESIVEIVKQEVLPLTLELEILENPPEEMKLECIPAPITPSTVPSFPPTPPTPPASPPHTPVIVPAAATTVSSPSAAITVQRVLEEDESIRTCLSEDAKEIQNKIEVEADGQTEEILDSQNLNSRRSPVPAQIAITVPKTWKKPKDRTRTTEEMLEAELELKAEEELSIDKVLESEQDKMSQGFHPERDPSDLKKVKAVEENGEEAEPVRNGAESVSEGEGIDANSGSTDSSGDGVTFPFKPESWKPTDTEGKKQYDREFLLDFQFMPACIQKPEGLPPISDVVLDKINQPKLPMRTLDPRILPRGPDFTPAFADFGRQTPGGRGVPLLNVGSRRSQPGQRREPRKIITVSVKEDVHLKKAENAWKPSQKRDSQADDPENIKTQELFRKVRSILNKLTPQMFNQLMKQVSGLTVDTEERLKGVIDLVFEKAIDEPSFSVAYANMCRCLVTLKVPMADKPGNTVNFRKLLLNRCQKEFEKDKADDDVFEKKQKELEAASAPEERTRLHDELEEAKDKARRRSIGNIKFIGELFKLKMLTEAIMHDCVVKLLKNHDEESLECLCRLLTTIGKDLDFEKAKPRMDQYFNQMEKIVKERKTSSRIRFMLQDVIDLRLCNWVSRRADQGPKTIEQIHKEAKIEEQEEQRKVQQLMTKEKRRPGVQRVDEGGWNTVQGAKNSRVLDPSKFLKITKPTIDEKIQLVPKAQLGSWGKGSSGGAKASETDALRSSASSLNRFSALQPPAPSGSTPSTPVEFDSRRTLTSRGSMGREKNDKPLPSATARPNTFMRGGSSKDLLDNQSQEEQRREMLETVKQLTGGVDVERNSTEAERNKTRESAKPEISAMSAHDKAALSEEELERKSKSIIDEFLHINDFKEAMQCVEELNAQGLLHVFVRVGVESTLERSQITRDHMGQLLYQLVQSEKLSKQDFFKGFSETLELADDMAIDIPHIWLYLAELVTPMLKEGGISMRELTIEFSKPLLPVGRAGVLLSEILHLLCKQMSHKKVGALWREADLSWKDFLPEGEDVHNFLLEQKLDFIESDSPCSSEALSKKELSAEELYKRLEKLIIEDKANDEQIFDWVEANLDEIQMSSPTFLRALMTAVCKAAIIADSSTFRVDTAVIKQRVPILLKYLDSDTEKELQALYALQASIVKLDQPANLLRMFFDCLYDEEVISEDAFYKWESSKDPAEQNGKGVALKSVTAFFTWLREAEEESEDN
UniProt Q9H5X1: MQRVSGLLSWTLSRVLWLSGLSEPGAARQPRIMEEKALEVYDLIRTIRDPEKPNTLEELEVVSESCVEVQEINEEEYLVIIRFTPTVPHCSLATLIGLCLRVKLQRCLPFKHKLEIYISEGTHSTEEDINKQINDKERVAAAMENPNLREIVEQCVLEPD
UniProt Q96ME1: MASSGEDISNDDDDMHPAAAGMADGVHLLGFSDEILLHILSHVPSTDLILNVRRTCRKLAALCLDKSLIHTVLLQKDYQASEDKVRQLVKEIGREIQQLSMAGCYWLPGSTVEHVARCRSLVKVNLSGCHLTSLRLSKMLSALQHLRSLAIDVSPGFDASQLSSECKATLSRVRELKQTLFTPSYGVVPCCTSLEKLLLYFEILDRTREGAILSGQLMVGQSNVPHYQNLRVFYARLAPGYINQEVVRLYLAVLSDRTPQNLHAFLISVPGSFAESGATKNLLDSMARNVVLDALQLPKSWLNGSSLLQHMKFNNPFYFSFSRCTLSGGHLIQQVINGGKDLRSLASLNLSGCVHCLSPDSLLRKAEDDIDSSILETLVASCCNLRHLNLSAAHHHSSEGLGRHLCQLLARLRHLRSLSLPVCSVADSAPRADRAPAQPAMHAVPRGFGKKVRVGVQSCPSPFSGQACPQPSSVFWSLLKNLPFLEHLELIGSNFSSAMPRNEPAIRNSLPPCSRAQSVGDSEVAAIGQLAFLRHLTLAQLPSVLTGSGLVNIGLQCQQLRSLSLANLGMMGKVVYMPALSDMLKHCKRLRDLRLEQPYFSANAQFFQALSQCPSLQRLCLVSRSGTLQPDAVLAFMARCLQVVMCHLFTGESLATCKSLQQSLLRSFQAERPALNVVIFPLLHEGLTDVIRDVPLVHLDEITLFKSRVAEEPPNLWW
UniProt Q14320: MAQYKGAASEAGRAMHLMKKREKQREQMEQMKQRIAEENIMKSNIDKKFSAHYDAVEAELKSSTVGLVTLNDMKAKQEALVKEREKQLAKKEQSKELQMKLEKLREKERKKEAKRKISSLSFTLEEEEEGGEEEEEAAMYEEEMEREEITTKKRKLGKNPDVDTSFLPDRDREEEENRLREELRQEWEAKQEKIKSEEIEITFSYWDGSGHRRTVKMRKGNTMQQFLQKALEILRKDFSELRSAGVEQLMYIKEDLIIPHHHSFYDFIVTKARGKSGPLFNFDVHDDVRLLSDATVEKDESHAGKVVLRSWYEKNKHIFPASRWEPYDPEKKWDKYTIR
UniProt Q9Y2D4: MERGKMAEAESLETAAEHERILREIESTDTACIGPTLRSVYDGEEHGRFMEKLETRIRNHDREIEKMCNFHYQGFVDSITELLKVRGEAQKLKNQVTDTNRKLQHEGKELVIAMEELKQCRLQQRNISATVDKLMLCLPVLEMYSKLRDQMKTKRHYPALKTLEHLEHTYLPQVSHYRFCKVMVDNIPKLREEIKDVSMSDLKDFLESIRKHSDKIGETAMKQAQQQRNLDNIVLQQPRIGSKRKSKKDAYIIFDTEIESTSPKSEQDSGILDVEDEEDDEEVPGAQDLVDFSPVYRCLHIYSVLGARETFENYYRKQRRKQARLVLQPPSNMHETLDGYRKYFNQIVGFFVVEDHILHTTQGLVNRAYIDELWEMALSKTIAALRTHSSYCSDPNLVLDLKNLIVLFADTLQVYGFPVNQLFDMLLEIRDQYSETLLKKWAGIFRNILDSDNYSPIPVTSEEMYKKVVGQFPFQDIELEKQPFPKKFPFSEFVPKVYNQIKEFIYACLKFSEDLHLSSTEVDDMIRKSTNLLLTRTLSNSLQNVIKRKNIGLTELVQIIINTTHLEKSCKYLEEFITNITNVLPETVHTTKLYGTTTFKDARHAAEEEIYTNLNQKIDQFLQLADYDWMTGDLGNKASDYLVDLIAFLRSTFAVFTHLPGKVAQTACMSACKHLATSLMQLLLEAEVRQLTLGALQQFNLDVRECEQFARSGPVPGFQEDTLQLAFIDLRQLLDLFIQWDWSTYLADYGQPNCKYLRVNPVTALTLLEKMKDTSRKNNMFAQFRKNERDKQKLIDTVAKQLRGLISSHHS
UniProt Q9NQT4, whole entry: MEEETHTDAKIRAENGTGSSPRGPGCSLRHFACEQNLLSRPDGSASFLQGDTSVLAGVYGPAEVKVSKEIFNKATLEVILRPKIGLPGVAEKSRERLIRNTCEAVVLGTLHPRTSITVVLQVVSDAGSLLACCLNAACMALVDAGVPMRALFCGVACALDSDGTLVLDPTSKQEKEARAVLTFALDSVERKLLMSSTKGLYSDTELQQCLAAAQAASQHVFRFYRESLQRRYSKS

compound: Nc1nc2c(ncn2[C@@H]2O[C@H](COP(=O)(O)OP(=O)(O)OP(=O)(O)O)[C@@H](O)[C@H]2O)c(=O)[nH]1; assay: dose-dependent thermal stabilisation call (2D-TPP, DLPTP, 10% FDR) (binary (1 = stabilised)); higher = stabilised by the compound; details: system: Jurkat gel-filtered lysate; concentration range 1-500 µM

dose-dependent thermal stabilisation call, inactive:
EPS15 (UniProt P42566) 0
FBXO5 (UniProt Q9UKT4) 0
EXOSC4 (UniProt Q9NPD3) 0
EPB41 (UniProt P11171) 0
FBXW9 (UniProt Q5XUX1) 0
FBLN1 (UniProt P23142) 0
FAM98B (UniProt Q52LJ0) 0
EHMT2 (UniProt Q96KQ7) 0
FNBP1 (UniProt Q96RU3) 0
EIF3I (UniProt Q13347) 0
FAM213B (UniProt Q8TBF2) 0
FBXW2 (UniProt Q9UKT8) 0
FKBPL (UniProt Q9UIM3) 0
FAM204A (UniProt Q9H8W3) 0
FAM114A2 (UniProt Q9NRY5) 0
FBRSL1 (UniProt Q9HCM7) 0
FGD3 (UniProt Q5JSP0) 0
EIF4G3 (UniProt O43432) 0
ELP5 (UniProt Q8TE02) 0
EIF2B4 (UniProt Q9UI10) 0
EMSY (UniProt Q7Z589) 0
ELMO1 (UniProt Q92556) 0
FAM96A (UniProt Q9H5X1) 0
FAM221A (UniProt A4D161) 0
FBXL18 (UniProt Q96ME1) 0
FH (UniProt P07954) 0
FAM50A (UniProt Q14320) 0
EXOC6B (UniProt Q9Y2D4) 0
EXOSC5 (UniProt Q9NQT4) 0
FBXO4 (UniProt Q9UKT5) 0
EML4 (UniProt Q9HC35) 0
EIF4G2 (UniProt P78344) 0

Looked up one by one from above, two records:
dose-dependent thermal stabilisation call, inactive:
ELP5 (UniProt Q8TE02) 0
EIF3I (UniProt Q13347) 0

Following part:

dose-dependent thermal stabilisation call, active:
FLI1 (UniProt Q01543) 1
FAM120A (UniProt Q9NZB2) 1
EEFSEC (UniProt P57772) 1
EHD4 (UniProt Q9H223) 1
